Assay results as given in the supplement of paper PMC10338343.
± gives the standard deviation. Only a part is listed here, and it is no random draw. The uncertainty is large for many entries. Some of the results follow.

How the values were obtained:
[1] = tested on: MIWI (PIWIL1) piRISC loaded with L1MC piRNA (30 nt); test: pre-steady-state target cleavage rate (min^-1); higher = faster piRNA-guided slicing of the target; settings: guide: L1MC piRNA 5'p-UAACUAAAUACUAUGCAAGCUGUAGGUCCU;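 note: 1 nM active piRISC with 0.1 nM target library at 33 °C single turnover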
Method in brief: (§1)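 Active affinity-purified piRISC carrying one synthetic guide (1 nM) was mixed with a transcribed, DNA-blocked target RNA library […] in HEPES–potassium acetate buffer at 33 °C for 0–8 or 0–960 min, with or without 500 nM GTSF1 partner protein. Uncleaved targets were then sequenced and normalised to depth and to weakly complementary targets. Three trials were pooled, and k3 was capped at 0.0001 min^-1. A burst-and-steady-state fit was applied to obtain the pre-steady-state cleavage rate.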

[2] = tested on: EfPiwi piRISC loaded with L1MC piRNA (26 nt); test: pre-steady-state target cleavage rate (min^-1); guide: L1MC piRNA 5'p-UAACUAAAUACUAUGCAAGCUGUAGG; MIWI and MILI are mouse PIWI proteins and EfPiwi is from a freshwater sponge; tags in brackets are library labels; higher = faster piRNA-guided slicing of the target
Method in brief: as §1

[3] = auxiliary factor: none (no GTSF1)
[4] = auxiliary factor: 500 nM Ephydatia muelleri Gtsf1
[5] = auxiliary factor: none (no Gtsf1)

Sequence	pre-steady-state target cleavage rate [1, 3]	pre-steady-state target cleavage rate [2, 4]	pre-steady-state target cleavage rate [2, 5]	pre-steady-state target cleavage rate ([1]; auxiliary factor: 500 nM mouse GTSF1)
UCCUGGAUGAGCUUGCUUUGUAUUUAGUUA	0.00156 ± 0.0031	0.000457 ± 0.011	0.00106 ± 0.0085	–
UCCUGGAUGUCGAACCAUAGUAUUUAGAAA [g4:g15:cont:t1A]	0.000289 ± 0.024	0.000358 ± 0.013	0.00019 ± 0.025	–
UCCUGGUACAGCUUGCAUAGUAUUAAGAAA	0.00164 ± 0.0034	0.00387 ± 0.0017	0.000824 ± 0.012	–
UCCUGGAUCAGGAUGCAUAGUAUUUAGUAA	0.00261 ± 0.0029	0.00188 ± 0.003	0.000109 ± 0.056	–
UCCUGGAUGAGCAAGCAUAGUAUUUAGUAA	0.00319 ± 0.0036	0.000534 ± 0.017	0.00051 ± 0.017	–
UCCUGGAUGUCGAUGCAUAGUAUUUACAAA	0.00025 ± 0.017	0.000373 ± 0.0069	< 0.0001	–
UCCUGGUACAGCUUGGUUAGUAUUUAGAAA	0.00172 ± 0.0043	0.00217 ± 0.0032	< 0.0001	–
UCCUGGAUGUCCUUAGCAUAGUAUUUAGUUA	0.00204 ± 0.0036	0.00479 ± 0.003	0.000598 ± 0.0079	–
UCCUGGUACAGCUUGCAGUAGUAUUUAGUUA	0.00103 ± 0.0062	0.0022 ± 0.0047	0.00194 ± 0.0067	–
UCCUGGAUGAGGAUGCAUAGUAUUUAGUUA	0.00252 ± 0.0029	0.00336 ± 0.0024	0.0019 ± 0.0057	–
UCCUGGAUGUCGUUGCAUAUUAUUUAGUUA	0.00186 ± 0.0044	0.00212 ± 0.003	0.00061 ± 0.014	–
UCCUGGAUGUCCAUGGAUAGUAUUUAGUUA	0.000768 ± 0.0081	0.000389 ± 0.0074	0.0004 ± 0.015	–
UCCUGGAUGUCGUUGCAUAGUAUUUAAUUA	0.00181 ± 0.005	0.00205 ± 0.0045	0.00061 ± 0.013	–
UCCUGCUACAGCUUGCAAUCAUAAAUCAAA [g14:g25:cont:t1A]	0.000314 ± 0.013	0.000448 ± 0.011	< 0.0001	–
UCCUCCUACAGCUUCGAUAGUAUUUACAAA	0.000241 ± 0.012	0.00182 ± 0.0031	0.000231 ± 0.02	–
UCCUGGAUGUCGAUGCAUAGAAUUUUGUUA	–	0.000137 ± 0.017	0.00019 ± 0.03	0.000232 ± 0.025
UCCUGCUACAGCUUGCAUAGUAUUAGUUA	0.00126 ± 0.0052	0.00404 ± 0.0022	0.000518 ± 0.0096	–
UCCUGGAUGUGGUUGCAUAGUAUUAAGUUA	0.00331 ± 0.004	0.00101 ± 0.0065	0.00162 ± 0.009	–

Quoted from the listing:
pre-steady-state target cleavage rate [2, 5] with UCCUGGAUGUCGAUGCAUAGAAUUUUGUUA is entered as 0.00019 ± 0.03
pre-steady-state target cleavage rate [2, 4] with UCCUGGAUGUCGUUGCAUAUUAUUUAGUUA is entered as 0.00212 ± 0.003
